Positions count from the first letter of the chain named. Results are given in words; binding and its absence hold for the method and conditions named. Binding seen in cells or lysates may run through a third protein. Some entries that bind do so weakly or less than the wild type. For some of these results: Tags and fused reporters may be left off the sequences shown.

Chains of the proteins cited; added tags and fusions are not shown. Lines headed by an entry give the natural chain unless they say otherwise; changes in a name come on top.
UniProt Q9NVP2: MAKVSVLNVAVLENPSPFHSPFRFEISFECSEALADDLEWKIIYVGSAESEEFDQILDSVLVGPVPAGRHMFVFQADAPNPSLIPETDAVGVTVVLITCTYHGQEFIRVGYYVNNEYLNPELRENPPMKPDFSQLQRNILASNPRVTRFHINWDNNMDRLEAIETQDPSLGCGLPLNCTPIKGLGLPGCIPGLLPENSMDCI
UniProt Q9Y294: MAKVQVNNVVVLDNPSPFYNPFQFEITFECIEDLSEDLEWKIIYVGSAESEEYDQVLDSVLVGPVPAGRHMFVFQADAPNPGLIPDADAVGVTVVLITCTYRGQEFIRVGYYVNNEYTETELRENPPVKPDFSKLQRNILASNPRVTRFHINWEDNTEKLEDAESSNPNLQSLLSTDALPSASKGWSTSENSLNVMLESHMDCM

Assay [1] addresses T1, Strep-tagged CDAN1 (ST-CDAN1), wildtype (human, UniProt Q8IWY9 1-1227).
T1 construct: Codanin-1 (CDAN1) cDNA from Horizon Discovery/Dharmacon; a point mutation of the clone (S421F) was corrected; in pCDNA3.1; Dimer by SEC-MALS and cryo-EM; Same plasmid used in Expi293 (purifications) and in Flp-In 293 T-REx (pulldowns); kept as one molecule; also called WT CDAN1; Strep-CDAN1; source: Expi293, transiently transfected, in lysate and purified in complexes (anti-FLAG, Strep-Tactin); …
T1 sequence: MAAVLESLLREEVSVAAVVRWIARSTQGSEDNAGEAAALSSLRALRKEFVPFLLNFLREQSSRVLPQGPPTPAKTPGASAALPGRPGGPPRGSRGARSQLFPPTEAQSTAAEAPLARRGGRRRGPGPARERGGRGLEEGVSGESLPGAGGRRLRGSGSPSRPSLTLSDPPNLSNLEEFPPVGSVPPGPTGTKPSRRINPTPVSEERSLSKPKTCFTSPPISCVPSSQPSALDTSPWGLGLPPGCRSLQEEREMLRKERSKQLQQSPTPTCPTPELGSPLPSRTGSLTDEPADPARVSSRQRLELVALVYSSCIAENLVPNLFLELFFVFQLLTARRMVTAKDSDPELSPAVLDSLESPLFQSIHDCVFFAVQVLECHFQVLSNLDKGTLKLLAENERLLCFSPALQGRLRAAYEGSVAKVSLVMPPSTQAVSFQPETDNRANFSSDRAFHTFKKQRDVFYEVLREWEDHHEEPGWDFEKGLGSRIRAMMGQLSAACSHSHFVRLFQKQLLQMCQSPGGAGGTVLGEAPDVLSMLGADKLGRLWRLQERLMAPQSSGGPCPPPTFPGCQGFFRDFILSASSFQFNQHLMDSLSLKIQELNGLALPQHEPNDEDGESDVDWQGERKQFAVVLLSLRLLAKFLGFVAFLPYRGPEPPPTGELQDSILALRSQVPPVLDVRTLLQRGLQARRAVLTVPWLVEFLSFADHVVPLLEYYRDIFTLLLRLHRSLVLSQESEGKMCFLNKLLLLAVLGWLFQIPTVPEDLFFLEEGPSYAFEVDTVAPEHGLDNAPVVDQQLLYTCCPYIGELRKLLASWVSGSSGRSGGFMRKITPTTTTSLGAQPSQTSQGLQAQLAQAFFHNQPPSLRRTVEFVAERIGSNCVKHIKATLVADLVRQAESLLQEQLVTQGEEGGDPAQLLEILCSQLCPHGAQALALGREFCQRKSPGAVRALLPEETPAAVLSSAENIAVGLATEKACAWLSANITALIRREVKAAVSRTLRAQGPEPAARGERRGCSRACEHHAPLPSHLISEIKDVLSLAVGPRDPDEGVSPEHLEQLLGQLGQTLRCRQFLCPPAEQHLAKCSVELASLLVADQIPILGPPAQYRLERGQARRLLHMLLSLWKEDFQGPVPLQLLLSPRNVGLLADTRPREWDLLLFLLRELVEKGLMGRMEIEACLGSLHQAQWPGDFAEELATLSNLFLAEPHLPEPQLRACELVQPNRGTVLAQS
Description: pull-down; Strep-Tactin Sepharose pulldown of ST-CDAN1 variants from lysates of transfected Flp-In 293 T-REx cells (alone, or co-transfected with FLAG-tagged ASF1 variants), IP buffer with 1% Triton X-100, 1 hr at 4°C; immunoblotting. For orientation: In western blotting, separated proteins are transferred to a membrane and probed.

For assay [2], the target named is T2, Strep-CDAN1 B* (S194A/R195A/R196A) (human) (UniProt Q8IWY9).
T2 sequence: T1 sequence with S194A, R195A, R196A
The description is as above.

Assay [3] addresses T3, endogenous CDAN1 with a C-terminal HaloTag-FLAG (HF) epitope (human (endogenous in Flp-In 293 T-REx)) (UniProt Q8IWY9).
T3 sequence: T1 sequence
Briefly: co-IP; anti-FLAG M2 agarose immunoprecipitation of endogenously HaloTag-FLAG-tagged CDAN1 or CDIN1 from Flp-In 293 T-REx lysates in IP buffer (50 mM HEPES pH 7.5, 100 mM KOAc, 2.5 Mg(OAc)2, 1% Triton X-100); immunoblotting.

For the molecule “FLAG-ASF1A>N (ASF1A with the N-terminal domain, residues 1-27, of ASF1B) (from UniProt Q9NVP2 1-27; Q9Y294 28-204)”, the binding result in assay [1] and in assay [2] was “binds” in each case.
For the molecule “FLAG-ASF1B>N (ASF1B with the N-terminal domain, residues 1-27, of ASF1A) (from UniProt Q9Y294 1-27; Q9NVP2 28-202)”, the binding result in assay [1] was “binds”.
On to “FLAG-tagged ASF1A (F-ASF1A) (from UniProt Q9Y294 1-204)”, for which the binding result in assay [2] is “binds”.
As for “endogenous ASF1A (from UniProt Q9Y294 1-204)”, the binding entry in assay [1], in assay [2] and in assay [3] was “binds” in each case.
For the molecule “endogenous ASF1B (from UniProt Q9NVP2 1-202)”, the binding entry in assay [1], in assay [2] and in assay [3] was “binds” each time.

B1: FLAG-tagged CDIN1 (F-CDIN1) (natural protein, UniProt Q9Y2V0 1-281, looked up)
chain: MILTKAQYDEIAQCLVSVPPTRQSLRKLKQRFPSQSQATLLSIFSQEYQKHIKRTHAKHHTSEAIESYYQRYLNGVVKNGAAPVLLDLANEVDYAPSLMARLILERFLQEHEETPPSKSIINSMLRDPSQIPDGVLANQVYQCIVNDCCYGPLVDCIKHAIGHEHEVLLRDLLLEKNLSFLDEDQLRAKGYDKTPDFILQVPVAVEGHIIHWIESKASFGDECSHHAYLHDQFWSYWNRFGPGLVIYWYGFIQELDCNRERGILLKACFPTNIVTLCHSIA
notes: CDIN1 (C15orf41) cDNA synthesized by IDT, in pCDNA3.1; source: Expi293, transiently transfected, in lysate and purified in complexes (anti-FLAG, Strep-Tactin); not shown: 3xFLAG, N-terminal, kept
Regarding B1, the binding result in assay [1], in assay [2] and in assay [3] was “binds” in each case.

The values above are taken from publication doi:10.1101/2024.08.08.607204, “Mechanism of ASF1 Inhibition by CDAN1” (bioRxiv, 2024).
